Experimental data as given in patent US8637455B2 (Affinergy, LLC, priority 2007, dated 2014).

Assay: general procedure: Fmoc solid-phase peptide synthesis; Fmoc-PAL-Peg-PS (~0.20 mmol/g); AA/TBTU/HOBt/NMM (1:1:1:2)
Details: whole synthesis, analytical reverse phase-HPLC, one disulfide bridge, sequence written open

Myr-Ahx-SSCLIDIYGVCHNFDAY-(miniPEG)2-HKKNNPKKKNKTRGSSK
final HPLC purity: >90%
